Reference: paper doi:10.1101/2021.02.08.430201
Like-named read-outs stand apart in the source and are kept apart here. No constants are given. Whether binding was seen depends on the method and setting. In cells and extracts the contact can be indirect. Some entries that bind do so weakly or less than the wild type.

Chains of the proteins cited; added tags and fusions are not shown. Lines headed by an entry give the natural chain unless they say otherwise; changes in a name come on top.
UniProt Q13330, whole entry: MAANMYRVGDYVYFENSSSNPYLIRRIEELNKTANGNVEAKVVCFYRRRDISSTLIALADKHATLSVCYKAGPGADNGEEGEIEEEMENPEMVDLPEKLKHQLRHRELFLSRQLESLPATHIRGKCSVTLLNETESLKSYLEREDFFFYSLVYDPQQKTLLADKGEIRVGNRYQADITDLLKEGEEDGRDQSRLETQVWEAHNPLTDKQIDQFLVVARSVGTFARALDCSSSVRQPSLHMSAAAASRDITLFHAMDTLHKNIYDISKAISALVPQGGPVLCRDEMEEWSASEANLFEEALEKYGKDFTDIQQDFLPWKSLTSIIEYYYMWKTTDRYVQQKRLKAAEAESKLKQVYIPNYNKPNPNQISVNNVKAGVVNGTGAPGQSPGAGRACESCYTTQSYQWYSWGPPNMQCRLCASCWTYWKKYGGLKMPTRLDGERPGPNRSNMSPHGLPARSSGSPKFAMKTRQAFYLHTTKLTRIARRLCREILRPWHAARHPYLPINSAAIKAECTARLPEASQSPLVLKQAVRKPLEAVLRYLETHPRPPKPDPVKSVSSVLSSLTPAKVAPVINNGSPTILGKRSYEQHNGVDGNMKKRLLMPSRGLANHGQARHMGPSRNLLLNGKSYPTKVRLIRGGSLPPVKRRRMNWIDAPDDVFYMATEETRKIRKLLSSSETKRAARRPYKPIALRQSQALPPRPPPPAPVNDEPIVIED
UniProt Q13547, whole entry: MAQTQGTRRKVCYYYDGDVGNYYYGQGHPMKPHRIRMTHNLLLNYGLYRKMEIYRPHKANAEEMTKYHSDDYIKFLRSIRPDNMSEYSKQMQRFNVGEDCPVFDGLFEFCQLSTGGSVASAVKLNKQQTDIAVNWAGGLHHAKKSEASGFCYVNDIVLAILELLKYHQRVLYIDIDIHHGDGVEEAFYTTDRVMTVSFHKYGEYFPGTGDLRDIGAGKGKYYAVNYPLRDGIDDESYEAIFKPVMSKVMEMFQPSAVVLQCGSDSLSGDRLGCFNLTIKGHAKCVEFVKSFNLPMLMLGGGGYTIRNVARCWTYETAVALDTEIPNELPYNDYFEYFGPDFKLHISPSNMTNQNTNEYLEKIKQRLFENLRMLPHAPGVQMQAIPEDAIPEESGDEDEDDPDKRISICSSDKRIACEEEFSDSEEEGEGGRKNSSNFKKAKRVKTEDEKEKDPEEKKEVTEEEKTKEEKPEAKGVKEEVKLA

B1: O-GlcNAc transferase (OGT), endogenous (enzyme, UniProt O15294 1-1046)
chain: MASSVGNVADSTEPTKRMLSFQGLAELAHREYQAGDFEAAERHCMQLWRQEPDNTGVLLLLSSIHFQCRRLDRSAHFSTLAIKQNPLLAEAYSNLGNVYKERGQLQEAIEHYRHALRLKPDFIDGYINLAAALVAAGDMEGAVQAYVSALQYNPDLYCVRSDLGNLLKALGRLEEAKACYLKAIETQPNFAVAWSNLGCVFNAQGEIWLAIHHFEKAVTLDPNFLDAYINLGNVLKEARIFDRAVAAYLRALSLSPNHAVVHGNLACVYYEQGLIDLAIDTYRRAIELQPHFPDAYCNLANALKEKGSVAEAEDCYNTALRLCPTHADSLNNLANIKREQGNIEEAVRLYRKALEVFPEFAAAHSNLASVLQQQGKLQEALMHYKEAIRISPTFADAYSNMGNTLKEMQDVQGALQCYTRAIQINPAFADAHSNLASIHKDSGNIPEAIASYRTALKLKPDFPDAYCNLAHCLQIVCDWTDYDERMKKLVSIVADQLEKNRLPSVHPHHSMLYPLSHGFRKAIAERHGNLCLDKINVLHKPPYEHPKDLKLSDGRLRVGYVSSDFGNHPTSHLMQSIPGMHNPDKFEVFCYALSPDDGTNFRVKVMAEANHFIDLSQIPCNGKAADRIHQDGIHILVNMNGYTKGARNELFALRPAPIQAMWLGYPGTSGALFMDYIITDQETSPAEVAEQYSEKLAYMPHTFFIGDHANMFPHLKKKAVIDFKSNGHIYDNRIVLNGIDLKAFLDSLPDVKIVKMKCPDGGDNADSSNTALNMPVIPMNTIAEAVIEMINRGQIQITINGFSISNGLATTQINNKAATGEEVPRTIIVTTRSQYGLPEDAIVYCNFNQLYKIDPSTLQMWANILKRVPNSVLWLLRFPAVGEPNIQQYAQNMGLPQNRIIFSPVAPKEEHVRRGQLADVCLDTPLCNGHTTGMDVLWAGTPMVTMPGETLASRVAASQLTCLGCLELIAKNRQEYEDIAVKLGTDLEYLKKVRGKVWKQRISSPLFNTKQYTMELERLYLQMWEHYAAGNKPDHMIKPVEVTESA

What was measured:
Test in all cases: co-IP
[1] = biological target: HA-tagged wild-type MTA1 (HA-MTA1-WT) (human) (UniProt Q13330)
[2] = biological target: HA-MTA1-S237A/S241A/S246A (HA-MTA1-3A) (human) (UniProt Q13330)
[3] = biological target: HA-tagged wild-type MTA1 (HA-MTA1-WT) (human) (UniProt Q13330); remark: listed apart in the source

Molecule | binding [1] | binding [2] | binding [3]
HDAC1, endogenous (from UniProt Q13547 1-482) (enzyme) | binds |  | 
B1 |  | binds | binds
